From patent publication US20260092057A1, “BCL-XL/BCL-2 DEGRADERS AND USES THEREOF” (Kymera Therapeutics, Inc., priority 2022, published 2026)
Structures were worked out from names or drawings and are uncertain.

Sequences of proteins named here, by UniProt entry; tags and fusion partners are left off.
UniProt Q07817, whole entry: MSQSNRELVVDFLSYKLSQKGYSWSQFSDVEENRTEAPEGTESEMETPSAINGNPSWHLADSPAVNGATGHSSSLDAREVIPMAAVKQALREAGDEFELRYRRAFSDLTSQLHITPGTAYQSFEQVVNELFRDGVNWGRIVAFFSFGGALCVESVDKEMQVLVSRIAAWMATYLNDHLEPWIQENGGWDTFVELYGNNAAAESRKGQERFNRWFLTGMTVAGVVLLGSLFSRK

Tests used:
BCL-XL = BCL-XL (Homo sapiens, UniProt Q07817); experiment: BCL-XL degradation assay in MOLT-4 cells (ELISA, 6 h)
MOLT-4 cells = experiment: CTG (CellTiter-Glo) cell viability assay, MOLT-4; conditions: read-out: CTG Cell Viability Assay - MOLT-4 3 day: Average external-IC50
Procedure: (§1) Compound-mediated viability effect on MOLT-4 and Caki-2 was quantitatively determined using the CellTiter-Glo® Luminescent Cell Viability Assay kit from Promega (Catalog number G7570) following manufacturer's recommended procedures. Briefly, MOLT-4 and Caki-2 cells were seeded into 384 well plates (Grenier Bio-One, Catalog number 781080) with a density of 10,000 cells per well. Compounds were then added to the assay plate with final top concentration of 10 µM and 1:3 dilution series with total of 9 doses. The final DMSO concentration is normalized to 0.2%. The assay plates were incubated at 37° C. for 3 days under 5% CO2. Then the assay plate was equilibrated at room temperature for 10 minutes. To determine cell viability, 30 uL CellTiter Glo reagent was added to each well and the assay plate was centrifuged at 1000 rpm for 30 second, incubated at room temperature for 10 min, and analyzed by detecting the luminescence using a multimode plate reader (EnVision 2105, PerkinElmer). The data was then analyzed by software Prism 7.0 from GraphPad and the dose response curves are fit using a three-parameter logistic equation to calculate IC50.
(§2) The letter codes for MOLT-4 IC50 include: A (<0.1 μM); B (0.1-1.0 μM); C (>1.0-3.0 μM); and D (>3.0 μM). The letter codes for Caki-2 IC50 include: A (<5 μM); B (5-10 μM); C (>10-30.0 μM); and D (>30.0 μM).

Caki-2 cells = experiment: CTG (CellTiter-Glo) cell viability assay, Caki-2; conditions: read-out: CTG Chempartner/PHA- Caki-2 3-day: Average external-IC50
Procedure: as §1, §2

- Bcl-xL ELISA in MOLT-4 degradation 6 h: Dmax % (BCL-XL): A (A (>75%))
- DC50 (BCL-XL; read-out: Bcl-xL ELISA in MOLT-4 degradation 6 h: External Abs-DC50): 10 to 100 nM
- IC50 (MOLT-4 cells): 100 to 1000 nM
Compound: Cc1ncsc1-c1ccc([C@H](C)NC(=O)[C@@H]2C[C@@H](O)CN2C(=O)[C@@H](NC(=O)CNCCCNc2ccc(S(=O)(=O)NC(=O)c3ccc(N4CCN(CC5=C(c6ccc(Cl)cc6)CC(C)(C)CC5)CC4)cc3Oc3cnc4[nH]ccc4c3)cc2S(=O)(=O)C(F)(F)F)C(C)(C)C)cc1 [I-115]
- IC50 (Caki-2 cells): > 30000 nM
